Construct, isoform or probe ends are uncertain for at least one entry. For some of these results: No signal at the amounts used counts as a negative.
Experiments:
Test in all cases: EMSA
GST = GST (UniProt P08515); details: LightShift Chemiluminescent EMSA kit (buffer, salt and pH not stated), 30 min at room temperature in the dark, 6% polyacrylamide gel; recombinant protein; protein details: GST; label: 3' biotin
[1] = tested on: GST-PpLBD16 (Prunus persica); details: LightShift Chemiluminescent EMSA kit (buffer, salt and pH not stated), 30 min at room temperature in the dark, 6% polyacrylamide gel, recombinant protein, protein details: N-terminal GST (pGEX-4T-1), label: 3' biotin
[2] = tested on: HIS-PpSnRK1α (Prunus persica); details: LightShift Chemiluminescent EMSA kit (buffer, salt and pH not stated), 30 min at room temperature in the dark, 6% polyacrylamide gel; recombinant protein; protein details: HIS (pET-32a); label: 3' biotin
[3] = with HIS-PpSnRK1α (binding enhanced)

Row | Sequence | binding result (GST) | binding result [1] | binding result [1, 3] | binding result [2]
1 | TATAATAATAAAGAAAAGAGGAAAAAAGACTTGTA (double strand) [proPpEXPB2 probe] | no binding | binds | binds | no binding
2 | AGAGTTTCCCAATTTTACACTAATTTGTTGTTTTTATTTTTTATTTTCTACA (double strand) [proPpCNGC1 probe] |  | binds | binds | no binding

From article PMC12483961
